From the supplement of paper PMC10849652
This is one part of the list.

Sequences of proteins named here, by UniProt entry; tags and fusion partners are left off. A change or cut given only in a name is not applied to a line headed by its entry.
UniProt O94768: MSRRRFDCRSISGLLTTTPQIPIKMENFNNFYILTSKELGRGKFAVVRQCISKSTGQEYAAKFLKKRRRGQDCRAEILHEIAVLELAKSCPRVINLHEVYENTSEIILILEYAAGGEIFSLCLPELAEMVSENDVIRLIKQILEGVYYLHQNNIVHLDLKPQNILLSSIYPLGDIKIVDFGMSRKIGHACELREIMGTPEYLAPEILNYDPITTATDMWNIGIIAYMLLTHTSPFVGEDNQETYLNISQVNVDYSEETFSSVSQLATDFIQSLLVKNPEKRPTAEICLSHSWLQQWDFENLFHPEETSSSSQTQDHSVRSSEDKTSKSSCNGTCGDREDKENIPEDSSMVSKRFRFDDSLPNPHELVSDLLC
UniProt O43761: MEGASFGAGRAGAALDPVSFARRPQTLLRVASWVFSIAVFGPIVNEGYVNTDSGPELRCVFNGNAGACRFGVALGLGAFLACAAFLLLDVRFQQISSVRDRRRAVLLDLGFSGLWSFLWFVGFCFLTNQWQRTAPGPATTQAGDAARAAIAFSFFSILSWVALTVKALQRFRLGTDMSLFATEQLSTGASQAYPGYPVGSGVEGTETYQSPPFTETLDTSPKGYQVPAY
UniProt Q15542, whole entry, looked up: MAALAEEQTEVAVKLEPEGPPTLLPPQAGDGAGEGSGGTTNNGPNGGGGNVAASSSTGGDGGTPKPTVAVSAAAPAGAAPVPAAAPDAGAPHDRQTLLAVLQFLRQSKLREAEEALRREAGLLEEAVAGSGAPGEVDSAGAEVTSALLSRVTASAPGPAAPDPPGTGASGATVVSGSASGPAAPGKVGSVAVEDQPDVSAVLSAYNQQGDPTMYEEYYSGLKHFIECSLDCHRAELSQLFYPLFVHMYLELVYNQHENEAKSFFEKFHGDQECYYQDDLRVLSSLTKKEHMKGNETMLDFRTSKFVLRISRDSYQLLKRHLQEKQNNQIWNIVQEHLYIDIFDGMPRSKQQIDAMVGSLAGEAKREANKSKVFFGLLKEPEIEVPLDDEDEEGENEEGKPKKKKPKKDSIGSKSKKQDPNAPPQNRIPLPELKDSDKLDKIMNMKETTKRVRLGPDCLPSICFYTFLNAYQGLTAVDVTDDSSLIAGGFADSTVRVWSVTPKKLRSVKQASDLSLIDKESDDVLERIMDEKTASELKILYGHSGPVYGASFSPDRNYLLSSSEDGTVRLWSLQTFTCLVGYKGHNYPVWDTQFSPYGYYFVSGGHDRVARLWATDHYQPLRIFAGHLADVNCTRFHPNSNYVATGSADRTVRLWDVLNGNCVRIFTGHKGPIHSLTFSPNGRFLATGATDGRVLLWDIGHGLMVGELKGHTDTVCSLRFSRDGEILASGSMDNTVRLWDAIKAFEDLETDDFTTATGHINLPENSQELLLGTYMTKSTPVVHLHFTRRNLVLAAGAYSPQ
UniProt Q6NVH7: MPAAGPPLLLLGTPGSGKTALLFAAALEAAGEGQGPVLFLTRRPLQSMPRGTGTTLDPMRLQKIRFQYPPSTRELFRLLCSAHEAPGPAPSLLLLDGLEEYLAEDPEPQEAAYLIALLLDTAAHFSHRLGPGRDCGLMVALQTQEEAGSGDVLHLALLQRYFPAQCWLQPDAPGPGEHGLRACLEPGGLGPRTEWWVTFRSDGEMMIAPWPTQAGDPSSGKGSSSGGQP
UniProt O75529: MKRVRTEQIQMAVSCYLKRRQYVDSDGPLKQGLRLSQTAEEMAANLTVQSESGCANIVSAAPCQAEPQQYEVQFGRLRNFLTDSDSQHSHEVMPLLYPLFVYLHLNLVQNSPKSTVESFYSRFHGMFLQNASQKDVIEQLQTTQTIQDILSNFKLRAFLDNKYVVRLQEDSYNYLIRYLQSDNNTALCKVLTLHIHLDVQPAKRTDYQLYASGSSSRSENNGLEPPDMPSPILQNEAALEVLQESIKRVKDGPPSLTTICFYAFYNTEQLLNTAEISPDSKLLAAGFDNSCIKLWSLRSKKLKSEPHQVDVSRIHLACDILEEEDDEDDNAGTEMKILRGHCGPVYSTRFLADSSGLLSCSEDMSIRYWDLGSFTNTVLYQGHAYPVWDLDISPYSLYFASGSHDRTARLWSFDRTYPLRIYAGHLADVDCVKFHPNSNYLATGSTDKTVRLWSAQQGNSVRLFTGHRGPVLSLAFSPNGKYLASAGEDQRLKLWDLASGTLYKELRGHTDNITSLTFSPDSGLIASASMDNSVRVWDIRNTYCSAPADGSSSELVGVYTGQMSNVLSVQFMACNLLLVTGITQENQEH
UniProt Q5VWG9, whole entry, looked up: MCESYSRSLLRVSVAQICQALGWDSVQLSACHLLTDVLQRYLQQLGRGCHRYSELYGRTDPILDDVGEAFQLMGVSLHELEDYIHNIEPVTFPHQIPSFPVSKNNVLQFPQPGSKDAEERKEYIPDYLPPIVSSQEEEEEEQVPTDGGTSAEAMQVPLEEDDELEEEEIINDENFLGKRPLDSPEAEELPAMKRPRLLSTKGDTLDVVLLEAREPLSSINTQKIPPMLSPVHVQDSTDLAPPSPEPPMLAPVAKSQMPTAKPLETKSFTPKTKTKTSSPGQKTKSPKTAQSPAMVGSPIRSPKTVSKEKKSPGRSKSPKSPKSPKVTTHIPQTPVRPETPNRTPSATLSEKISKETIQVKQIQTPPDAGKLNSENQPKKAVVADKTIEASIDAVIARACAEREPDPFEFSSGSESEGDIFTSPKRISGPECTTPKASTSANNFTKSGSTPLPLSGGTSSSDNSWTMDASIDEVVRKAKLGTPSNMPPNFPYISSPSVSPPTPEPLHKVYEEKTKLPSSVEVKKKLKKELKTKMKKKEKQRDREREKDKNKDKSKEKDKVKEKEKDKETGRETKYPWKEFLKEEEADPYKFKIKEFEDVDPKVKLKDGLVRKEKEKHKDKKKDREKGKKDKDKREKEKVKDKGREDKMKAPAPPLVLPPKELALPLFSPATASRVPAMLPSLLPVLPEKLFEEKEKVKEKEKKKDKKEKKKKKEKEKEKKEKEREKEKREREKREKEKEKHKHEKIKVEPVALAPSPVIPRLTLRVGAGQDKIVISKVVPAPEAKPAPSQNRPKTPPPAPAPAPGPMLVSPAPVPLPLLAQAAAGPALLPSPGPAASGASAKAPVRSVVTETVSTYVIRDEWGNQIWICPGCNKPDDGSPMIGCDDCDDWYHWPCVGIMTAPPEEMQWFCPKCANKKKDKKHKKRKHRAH
UniProt P49842: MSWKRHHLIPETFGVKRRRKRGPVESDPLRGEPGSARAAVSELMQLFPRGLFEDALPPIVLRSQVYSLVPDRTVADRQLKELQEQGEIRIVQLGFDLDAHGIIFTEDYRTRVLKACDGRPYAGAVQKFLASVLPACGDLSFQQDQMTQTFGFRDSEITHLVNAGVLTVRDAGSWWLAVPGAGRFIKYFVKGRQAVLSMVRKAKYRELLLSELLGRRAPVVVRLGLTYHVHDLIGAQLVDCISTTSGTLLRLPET
UniProt O75486: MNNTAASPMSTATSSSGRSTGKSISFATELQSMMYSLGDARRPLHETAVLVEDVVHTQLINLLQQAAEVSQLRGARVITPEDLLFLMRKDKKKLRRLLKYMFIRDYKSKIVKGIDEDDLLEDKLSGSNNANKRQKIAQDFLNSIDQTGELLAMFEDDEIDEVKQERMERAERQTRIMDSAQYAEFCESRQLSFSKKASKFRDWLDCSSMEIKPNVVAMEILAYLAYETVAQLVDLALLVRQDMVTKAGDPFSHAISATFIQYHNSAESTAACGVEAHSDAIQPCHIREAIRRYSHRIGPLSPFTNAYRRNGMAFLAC
UniProt Q15572: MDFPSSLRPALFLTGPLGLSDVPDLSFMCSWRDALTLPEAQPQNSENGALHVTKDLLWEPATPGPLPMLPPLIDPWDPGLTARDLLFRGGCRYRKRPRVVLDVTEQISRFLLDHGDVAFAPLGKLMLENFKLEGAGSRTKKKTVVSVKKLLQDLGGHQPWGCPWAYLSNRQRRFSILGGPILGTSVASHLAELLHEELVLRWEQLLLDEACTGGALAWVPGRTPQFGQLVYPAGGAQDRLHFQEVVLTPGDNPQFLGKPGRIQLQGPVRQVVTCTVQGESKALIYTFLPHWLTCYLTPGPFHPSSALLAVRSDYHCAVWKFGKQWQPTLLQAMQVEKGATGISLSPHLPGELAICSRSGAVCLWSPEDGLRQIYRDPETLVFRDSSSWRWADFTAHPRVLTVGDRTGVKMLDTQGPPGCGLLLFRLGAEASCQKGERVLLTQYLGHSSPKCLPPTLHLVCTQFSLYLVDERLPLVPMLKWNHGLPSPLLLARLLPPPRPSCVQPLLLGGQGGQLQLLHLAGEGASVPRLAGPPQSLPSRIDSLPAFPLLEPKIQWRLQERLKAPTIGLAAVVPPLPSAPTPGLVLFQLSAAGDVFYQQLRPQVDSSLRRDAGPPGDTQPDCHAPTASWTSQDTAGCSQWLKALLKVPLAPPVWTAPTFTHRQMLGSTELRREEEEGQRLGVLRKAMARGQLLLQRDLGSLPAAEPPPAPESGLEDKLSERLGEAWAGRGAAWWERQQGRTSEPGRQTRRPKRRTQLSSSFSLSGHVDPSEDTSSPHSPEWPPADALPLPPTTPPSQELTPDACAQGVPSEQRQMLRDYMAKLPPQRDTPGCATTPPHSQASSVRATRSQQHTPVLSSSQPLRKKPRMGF
UniProt Q9UEE5: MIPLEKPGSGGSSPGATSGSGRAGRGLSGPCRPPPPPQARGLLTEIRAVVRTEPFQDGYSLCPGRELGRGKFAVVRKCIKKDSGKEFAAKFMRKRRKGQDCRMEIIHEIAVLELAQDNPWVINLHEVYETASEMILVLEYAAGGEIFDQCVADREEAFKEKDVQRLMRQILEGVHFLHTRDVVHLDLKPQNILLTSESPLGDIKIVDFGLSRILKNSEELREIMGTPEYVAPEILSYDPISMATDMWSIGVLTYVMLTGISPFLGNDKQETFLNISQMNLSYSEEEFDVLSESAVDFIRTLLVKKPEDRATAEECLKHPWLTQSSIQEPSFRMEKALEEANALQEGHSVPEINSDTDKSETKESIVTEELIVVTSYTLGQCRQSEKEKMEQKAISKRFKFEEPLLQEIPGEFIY
UniProt Q15543, whole entry, looked up: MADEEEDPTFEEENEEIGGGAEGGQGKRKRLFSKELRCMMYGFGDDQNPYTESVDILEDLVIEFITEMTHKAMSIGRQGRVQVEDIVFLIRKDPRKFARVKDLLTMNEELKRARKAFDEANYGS
UniProt Q92537: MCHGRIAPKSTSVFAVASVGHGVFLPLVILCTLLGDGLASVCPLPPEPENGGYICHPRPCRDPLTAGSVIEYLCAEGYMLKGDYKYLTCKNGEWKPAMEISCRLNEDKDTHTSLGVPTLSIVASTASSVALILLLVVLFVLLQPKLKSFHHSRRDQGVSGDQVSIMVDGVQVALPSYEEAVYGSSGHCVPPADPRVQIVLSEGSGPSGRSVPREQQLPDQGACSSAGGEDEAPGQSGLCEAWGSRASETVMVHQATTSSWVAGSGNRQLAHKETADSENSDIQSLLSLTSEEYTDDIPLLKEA
UniProt Q8N300: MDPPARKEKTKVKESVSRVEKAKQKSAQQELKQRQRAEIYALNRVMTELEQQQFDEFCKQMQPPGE
UniProt O43759: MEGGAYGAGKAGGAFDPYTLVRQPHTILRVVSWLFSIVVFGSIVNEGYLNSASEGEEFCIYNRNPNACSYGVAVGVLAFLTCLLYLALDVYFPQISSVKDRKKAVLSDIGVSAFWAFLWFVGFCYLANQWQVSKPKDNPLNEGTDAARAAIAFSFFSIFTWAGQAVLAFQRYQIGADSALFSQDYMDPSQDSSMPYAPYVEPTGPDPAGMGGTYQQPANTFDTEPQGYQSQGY
UniProt P0DMM9: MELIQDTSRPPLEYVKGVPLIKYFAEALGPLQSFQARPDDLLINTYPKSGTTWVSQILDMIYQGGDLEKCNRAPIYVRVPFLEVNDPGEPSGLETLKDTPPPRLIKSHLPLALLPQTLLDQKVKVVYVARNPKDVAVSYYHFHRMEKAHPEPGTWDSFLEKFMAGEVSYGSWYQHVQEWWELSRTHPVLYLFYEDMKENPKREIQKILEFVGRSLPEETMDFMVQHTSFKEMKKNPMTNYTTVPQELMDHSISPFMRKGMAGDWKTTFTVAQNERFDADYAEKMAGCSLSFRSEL
UniProt Q8TDR2: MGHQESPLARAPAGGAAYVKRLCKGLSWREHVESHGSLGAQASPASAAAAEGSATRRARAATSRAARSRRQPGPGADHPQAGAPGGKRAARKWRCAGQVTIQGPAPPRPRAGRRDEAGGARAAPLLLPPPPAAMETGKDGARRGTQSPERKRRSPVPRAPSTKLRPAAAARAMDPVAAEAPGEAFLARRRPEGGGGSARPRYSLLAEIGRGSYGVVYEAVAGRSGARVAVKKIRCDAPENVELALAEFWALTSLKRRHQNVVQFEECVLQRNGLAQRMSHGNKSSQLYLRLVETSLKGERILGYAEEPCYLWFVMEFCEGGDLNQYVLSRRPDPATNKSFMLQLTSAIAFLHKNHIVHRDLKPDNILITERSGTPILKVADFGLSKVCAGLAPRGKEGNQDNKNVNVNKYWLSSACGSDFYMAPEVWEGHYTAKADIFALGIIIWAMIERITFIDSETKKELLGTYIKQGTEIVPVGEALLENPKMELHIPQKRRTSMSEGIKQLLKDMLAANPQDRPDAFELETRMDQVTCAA

Key:
Experiment in all cases: log2 fold change, soluble protein after heating vs DMSO (PISA); higher = thermal stabilisation; K562 lysate, 10 uM; active = over 0.2 and 3.5 SD of the protein, either way, in both replicates (recomputed)
[1] = compound: C[C@@H](Oc1cc(-c2cnn(C3CCNCC3)c2)cnc1N)c1c(Cl)ccc(F)c1Cl [crizotinib]
Method in brief: (§1)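 A 30 min treatment with 10 μM compound was applied to crude K562 extract at 1 mg/mL protein in PBS pH 7.4 with 1 mM MgCl2. Heating for 3 min spanned 48°C-58°C, after which aliquots were pooled, adjusted to 0.5% NP-40 at 4°C and spun at 21,000xg for 90 min. TMTpro 16plex LC-MS/MS of the supernatant, with channel sums equalised, gave values recorded as log-two fold change in thermal stability against solvent controls, from duplicates.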

[2] = compound: C[C@H](Nc1ncnc2nc[nH]c12)c1cc2cccc(Cl)c2c(=O)n1-c1ccccc1 [duvelisib]
Method in brief: as §1

[3] = compound: Cc1ccc(-n2nc(C(C)(C)C)cc2NC(=O)Nc2ccc(OCCN3CCOCC3)c3ccccc23)cc1 [doramapimod]
Method in brief: as §1

[4] = compound: CS(=O)(=O)CCNCc1ccc(-c2ccc3ncnc(Nc4ccc(OCc5cccc(F)c5)c(Cl)c4)c3c2)o1 [lapatinib]
Method in brief: as §1

[5] = compound: C[C@H](C1=CC=C(C=C1)C(=O)NC2=C3C=CNC3=NC=C2)N
Method in brief: as §1

[6] = compound: Cc1cc(Nc2cc(CN3CCOCC3)c3nc(C)c(Cc4ccc(Cl)cc4F)n3n2)n[nH]1 [gandotinib]
Method in brief: as §1

[7] = compound: Cc1cc(Nc2cc(N3CCN(C)CC3)nc(Sc3ccc(NC(=O)C4CC4)cc3)n2)n[nH]1 [tozasertib]
Method in brief: as §1

[8] = compound: Cc1cccc(CC(=O)N2CCc3c2ccc(-c2cn(C)c4ncnc(N)c24)c3F)n1
Method in brief: as §1

[9] = compound: CS(=O)(=O)N1CCN(Cc2cc3nc(-c4cccc5[nH]ncc45)nc(N4CCOCC4)c3s2)CC1 [pictilisib]
Method in brief: as §1

[10] = compound: Cc1ccc(NC(=O)c2ccc(CN3CC[C@H](N(C)C)C3)c(C(F)(F)F)c2)cc1Nc1nccc(-c2cncnc2)n1 [bafetinib]
Method in brief: as §1

Measured: log2 fold change

STK17B (UniProt O94768)
inactive: [1] -0.255 | [2] 0 | [3] -0.117

TAF1 isoform 4 (UniProt P21675)
inactive: [4] 0.061 | [1] -0.014 | [5] -0.034 | [2] 0.002 | [6] -0.195 | [7] 0.045 | [3] 0.033 | [8] 0.416

TAF11 (UniProt Q15544)
inactive: [4] 0.003 | [1] -0.085 | [5] -0.036 | [2] -0.06 | [6] 0.026 | [7] 0.102 | [3] 0.023 | [8] 0

SYNGR3 (UniProt O43761)
inactive: [9] -0.052 | [10] 0.146

STIM2 isoform 2 (UniProt Q9P246)
inactive: [4] -0.103 | [1] -0.015 | [5] 0.016 | [2] -0.114 | [6] -0.093 | [7] -0.106 | [3] -0.084 | [8] 0.047

TAF5 (UniProt Q15542)
inactive: [4] -0.162 | [9] -0.086 | [5] 0.015 | [2] -0.035 | [6] -0.194 | [10] -0.222 | [8] -0.123

STS (UniProt P08842)
inactive: [9] -0.249 | [1] 0.02 | [5] -0.103 | [6] -0.022 | [3] -0.039 | [10] -0.2 | [8] 0.041

SWSAP1 (UniProt Q6NVH7)
inactive: [2] 0.098

SYNM (UniProt O15061)
inactive: [9] 0.043 | [5] -0.078 | [6] 0.035 | [7] -0.054 | [10] 0.03 | [8] 0.086

TAF5L (UniProt O75529)
inactive: [9] -0.097 | [1] 0.02 | [5] 0.058 | [2] 0.041 | [6] -0.029 | [7] -0.029 | [3] -0.044 | [10] -0.07 | [8] 0.053

SYK (UniProt P43405)
inactive: [4] -0.086 | [9] 0.017 | [2] 0.004 | [6] 0.272 | [7] 0.002 | [3] 0.021 | [10] -0.236 | [8] 0.261
active: [5] -0.479

TADA2A (UniProt O75478)
inactive: [1] 0 | [3] -0.039

TAF3 (UniProt Q5VWG9)
inactive: [4] -0.026 | [5] -0.05 | [6] 0.046 | [8] 0.088

STK19 (UniProt P49842)
inactive: [1] -0.031 | [2] -0.128 | [3] -0.141

SUPT3H (UniProt O75486)
inactive: [4] 0.097 | [1] 0.047 | [5] 0.092 | [6] -0.139 | [7] 0.07 | [3] -0.094 | [8] -0.037

STRN3 isoform 2 (UniProt Q13033)
inactive: [9] 0.052 | [5] -0.051 | [2] 0.047 | [6] 0.031 | [10] -0.086 | [8] -0.08

STK26 isoform 3 (UniProt Q9P289)
inactive: [1] 0.095 | [2] 0.008 | [7] -0.001 | [3] -0.416

SUSD3 (UniProt Q96L08)
inactive: [4] 0.092 | [5] -0.046 | [6] 0.007 | [8] 0.139

Two neighbouring entries from above, quoted:
STK19 (UniProt P49842)
inactive: [1] -0.031 | [2] -0.128 | [3] -0.141

SUPT3H (UniProt O75486)
inactive: [4] 0.097 | [1] 0.047 | [5] 0.092 | [6] -0.139 | [7] 0.07 | [3] -0.094 | [8] -0.037

(next part)

STK38L (UniProt Q9Y2H1)
inactive: [1] -0.059 | [2] -0.007 | [7] -0.009 | [3] -0.025

TAF1C (UniProt Q15572)
inactive: [9] 0.047 | [1] -0.042 | [5] 0.045 | [2] 0.044 | [6] -0.056 | [7] 0.034 | [3] -0.1 | [10] -0.069 | [8] -0.011

STK17A (UniProt Q9UEE5)
inactive: [5] 0.315 | [6] -0.001 | [8] -0.197

TAF13 (UniProt Q15543)
inactive: [5] -0.057 | [6] 0.03 | [8] 0.126

SUFU (UniProt Q9UMX1)
inactive: [4] -0.163 | [1] -0.028 | [5] -0.244 | [6] 0.075 | [3] -0.056 | [8] 0.023

SUSD6 (UniProt Q92537)
inactive: [5] -0.07 | [6] -0.032 | [8] -0.044

SUCO isoform 2 (UniProt Q9UBS9)
inactive: [1] -0.016 | [7] 0.051 | [3] 0.089

SVBP (UniProt Q8N300)
inactive: [1] 0.102 | [5] 0.005 | [6] 0.024 | [7] 0.005 | [3] -0.008 | [8] -0.085

STXBP6 (UniProt Q8NFX7)
inactive: [9] -0.154 | [1] 0.067 | [5] 0.197 | [6] 0.126 | [3] 0.074 | [10] -0.098 | [8] 0.164

SYNGR1 isoform 2 (UniProt O43759)
inactive: [9] -0.09 | [1] -0.023 | [5] -0.067 | [6] -0.037 | [7] 0.2 | [3] -0.006 | [10] 0.04 | [8] -0.077

SZT2 (UniProt Q5T011)
inactive: [4] 0.275 | [9] 0.189 | [5] -0.108 | [2] -0.081 | [6] -0.17 | [7] -0.097 | [10] -0.214 | [8] 0.22

SULT1A3 isoform 3 (UniProt P0DMM9)
inactive: [9] -0.033 | [1] -0.095 | [5] 0.064 | [2] 0.072 | [6] -0.088 | [7] 0.051 | [3] 0.001 | [10] -0.04 | [8] -0.085

STK35 (UniProt Q8TDR2)
inactive: [4] -0.059 | [9] 0.015 | [5] -0.095 | [2] -0.051 | [6] 0.316 | [7] 0.038 | [10] -0.641 | [8] 0.003
